Values joined by “and” are separate entries in the source; they are usually repeats but may differ in a detail not shown here. Identical values can stand only once. The list shows a part of the results. The main result of the screen is listed elsewhere. These columns were measured beside it and carry no call. The list favours compounds with an active or inconclusive main result.

This assay is described as follows: inhibitors of insulin promoter-driven GFP, primary screen, imaging, TRM-6 cells (human fetal islet line), eGFP reporter, cell count (AID 1273;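 note: cells exposed to compound for 48 h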). Conditions: measured here: cell count, toxicity, at 2 µM, reporter expression induced with tamoxifen.
With `COc1ccc(-n2nnnc2SCC(=O)c2ccc3c(c2)OCCO3)cc1`, the normalized cell count worked out at 63.2%.

Compound `CC(/C=N/NC(=O)Cc1cccn1C)=C\c1ccccc1` returned a normalized cell count of 93.2%. In the case of `O=C(CN1C(=O)S/C(=C/c2cccnc2)C1=O)N1CCOCC1` it was 71%; in that of `CNC(=S)N(CCc1ccccc1)Cc1cc2cc(OC)c(OC)cc2[nH]c1=O`, 98.4%; in that of `COc1ccc2nc(C)cc(N3CC(C)OC(C)C3)c2c1` (stereo not drawn), 79.8%. The figure for `CCOc1cc(-n2nc(C)c(C#N)c2N)nc(SC)n1` is 75%; for `CCOC(=O)c1c(NC(=O)COC)sc(C)c1C` it is 85%.

The compound `Cc1nc2ccccc2n1CC(O)COc1ccccc1Cl` (stereo not drawn) returned a normalized cell count of 195%. On to `Cn1cc(-c2nc3ccccc3[nH]2)c2ccccc21`, for which the normalized cell count turned out to be 16.2%.

`COc1ccc(Cl)cc1-c1nc(-c2ccncc2)no1` had a normalized cell count of 69.8%.

In turn, `CCCc1nccn1S(=O)(=O)c1cc(OC)ccc1OC` yielded a normalized cell count of 35.2%. The figure for `O=C(/C=C/c1ccc2c(c1)OCO2)Nc1ccc(Cl)cn1` is 22.3%. The figure for `Cc1cccc(OCC(=O)NCCN2CCOCC2)c1` is 154%. In the case of `Cn1c(=O)c2[nH]c(-c3ccccc3Cl)c(O)c2n(C)c1=O` it was 86.3%; in that of `Cc1ccc(/C=N/Nc2ccc3c(C(F)(F)F)cc(C(F)(F)F)nc3n2)cc1`, 51%.

Compound `COc1ccc(-c2nc(SC)n(C(=O)c3ccco3)n2)cc1` displayed a normalized cell count of 115%.

In turn, `COc1cccc(-c2nc(-c3ccc(NC(=O)c4ccncc4)cc3)no2)c1` displayed a normalized cell count of 100%. The figure for `Cc1cc(C)n(-c2nc3c(c(=O)n(C)c(=O)n3C)n2CC(O)COc2ccccc2C)n1` (stereo not drawn) is 131%.

Compound `O=C1c2ccccc2C2NC(=O)C3(CCCCC3)N12` (stereo not drawn) gave a normalized cell count of 126%. The figure for `CCn1cc(CNC(=O)c2cc(COc3ccc(F)cc3Cl)on2)cn1` is 93.3%.

For the compound `C=CCNc1ncnc2c1cnn2-c1cccc(C)c1`, the normalized cell count was 149%. The figure for `CCc1ccc(-c2cn3c(n2)SCC3)cc1` is 79.3%; for `CC(=O)NC(c1ccccc1)c1nc2ccccc2[nH]1` (stereo not drawn) it is 103%.

As for `CCn1cc(C(=O)N2CCc3ccccc32)c(=O)c2cc(S(=O)(=O)N3CCCC3)ccc21`, the normalized cell count turned out to be 148%.

Turning to `Cc1ccccc1OCc1nc2ccccc2[nH]1`, the normalized cell count stood at 182%. Regarding `CCCCCn1nc(C(=O)OCC(=O)c2c(N)n(C)c(=O)n(C)c2=O)c2ccccc2c1=O`, the normalized cell count turned out to be 95.6%. The figure for `COc1cc(S(=O)(=O)Nc2ccc(C)cc2)ccc1N=Cc1c(C)[nH]n(-c2ccccc2)c1=O` is 134%; for `CCSc1nc2ccccc2[nH]1` it is 38% and 154%; for `Cc1cc2ccccc2nc1SCC(=O)N1c2ccccc2CC1C` (stereo not drawn) it is 60.3%.

`COc1ccc(-c2[nH]ncc2CNCCc2ncccc2C)cc1F` returned a normalized cell count of 114%.

For `COc1ccccc1CN1C(=O)[C@@H]2C(CCC(N)=O)NC3(C(=O)Nc4c3ccc(Cl)c4C)[C@@H]2C1=O` (stereo partly drawn), the normalized cell count came to 86%. As to `O=C(CSc1n[nH]c(-c2ccc(S(=O)(=O)N3CCCCC3)cc2)n1)Nc1nccs1`, the normalized cell count turned out to be 108%. The figure for `COc1ccc(Cn2nnc3c(=O)[nH]c(C(=O)NCCc4ccc(F)cc4)nc32)cc1OC` is 60.5%; for `O=C(CCSc1nnc(-c2ccco2)o1)Nc1ccc(F)cc1` it is 35.9%.

With `CC(O)C(C(=O)OCc1ccc([N+](=O)[O-])cc1)N1C(=O)c2ccccc2C1=O` (stereo not drawn), the normalized cell count was 88.6%. The figure for `CCOc1c2c(nc3ccc(Cl)cc13)CCC2` is 144%; for `CCC(CC)NC(=O)c1cccc(Br)c1` it is 73.9%.

For `COc1ccccc1/C=C1\CCCC2=C1Nc1nnnn1C2c1ccccc1OC` (stereo not drawn), the normalized cell count amounted to 152%.

With `COCC(C)NC(=O)Cc1ccc(F)cc1` (stereo not drawn), the normalized cell count stood at 136%. The figure for `CCC(C(=O)OCC(=O)Nc1cccc(OC)c1)c1ccccc1` (stereo not drawn) is 150%; for `Cc1ccc2[nH]c3c(=S)nc[nH]c3c2c1` it is 146%; for `CCCc1cc(C(N)=O)c(NC(=O)c2ccoc2C)s1` it is 95.6%. The figure for `C=CCn1c(SCC(=O)Nc2nccs2)nnc1-c1cc2cccc(OC)c2o1` is 125%.

In turn, `O=C(c1ccc(Br)s1)N1CCCC1` displayed a normalized cell count of 72.3%. The figure for `CN=C1SC(CC(=O)NCCc2ccc(OC)c(OC)c2)C(=O)N1C` (stereo not drawn) is 128%; for `O=C(c1ccco1)N1CCN(c2nc3ccsc3c(=O)s2)CC1` it is 139%; for `CCC(=O)c1ccc(OC(=O)c2cnccn2)cc1` it is 136%.

In the case of `Cc1cccc(-n2ncc(C#N)c2N)c1`, the normalized cell count came to 80.3%. The figure for `CCCCSc1nc(C)[nH]c1[N+](=O)[O-]` is 136%; for `CCSc1nnc(-c2ccccc2NC(C)=O)c(=O)[nH]1` it is 50.6%. The figure for `COC(=O)CS(=O)(=O)c1nnc([C@H](Cc2ccccc2)NC(=O)OC(C)(C)C)o1` is 14.8%; for `CC(=O)Nc1ccc(Nc2cc(C)nc3c(-c4ccc(Cl)cc4)cnn23)cc1` it is 136%.

Compound `Cc1ccc(CCNC(=O)NC(C)(C)C)cc1` returned a normalized cell count of 122%. The figure for `c1ccc(-c2csc3ncnc(NCC4COc5ccccc5O4)c23)cc1` (stereo not drawn) is 71%. The figure for `CC(C)Sc1nc2ccccc2n1CC(=O)NCc1ccc2c(c1)OCO2` is 84%; for `COc1cc(/C=N/n2c(SC)nnc(C(C)(C)C)c2=O)ccc1O` it is 116%. In the case of `Clc1ccc(Nc2ncn[nH]2)c(Cl)c1` it was 112%; in that of `COC(=O)c1ccc2c(=O)n(-c3ccccc3F)c(=S)[nH]c2c1`, 22.7%.
